Data: the supplement of paper PMC4604168 (melanoma cell lines)
Some of the results follow. Many values rest on one well or one pass, so single values are uncertain.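 The apoptosis fraction was the count of cleaved-PARP antibody-stained nuclei relative to all DNA-stained nuclei, imaged in 1,536-well plates. Screening doses were set so most cells survived, and baseline and induced cleaved-PARP levels vary greatly across cell lines.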

Assays:
Assay in all cases: cleaved PARP positive nuclei fraction relative to DMSO control; melanoma cells; higher = more apoptosis
Conditions in all cases: library dose: low library concentration; 72 h
[1] = system: COLO792
[2] = system: COLO800
[3] = system: COLO829
[4] = system: G361
[5] = system: IPC-298
[6] = system: IST-MEL1
[7] = system: LB2518-MEL
[8] = system: LOXIMVI
[9] = system: MEL-HO
[10] = system: MZ2-MEL
[11] = system: MeWo
[12] = system: RPMI7951
[13] = system: RVH-421
[14] = system: SkMel28
[15] = system: SkMel2
[16] = system: SkMel30
[17] = system: SkMel5
[18] = system: UACC257
[19] = system: UACC62

| SMILES | cleaved PARP positive nuclei fraction [1] | cleaved PARP positive nuclei fraction [2] | cleaved PARP positive nuclei fraction [3] | cleaved PARP positive nuclei fraction [4] | cleaved PARP positive nuclei fraction [5] | cleaved PARP positive nuclei fraction [6] | cleaved PARP positive nuclei fraction [7] | cleaved PARP positive nuclei fraction [8] | cleaved PARP positive nuclei fraction [9] | cleaved PARP positive nuclei fraction [10] | cleaved PARP positive nuclei fraction [11] | cleaved PARP positive nuclei fraction [12] | cleaved PARP positive nuclei fraction [13] | cleaved PARP positive nuclei fraction [14] | cleaved PARP positive nuclei fraction [15] | cleaved PARP positive nuclei fraction [16] | cleaved PARP positive nuclei fraction [17] | cleaved PARP positive nuclei fraction [18] | cleaved PARP positive nuclei fraction [19] |
| --- | --- | --- | --- | --- | --- | --- | --- | --- | --- | --- | --- | --- | --- | --- | --- | --- | --- | --- | --- |
| O=c1[nH]nc(Sc2ncc([N+](=O)[O-])s2)n1-c1ccc2c(c1)OCCO2 + O=C(Nc1cccc(Cl)c1)Nc1ncc(CCNc2ncnc3ccsc23)s1 [SNS314] (first compound 0.2 µM, partner dose 0.0008 µM) | 83.3% | 101% | 125% | 49.2% | 88% | 66.7% | 89.4% | 25.7% | 92.4% | 98.3% | 158% | 231% | 60.6% | 28.5% | 98.4% | 59% | 149% | 141% | 101% |
| O=C(/C=C/c1cccnc1)NCCCCC1CCN(C(=O)c2ccccc2)CC1 + C=CCn1c(=O)c2cnc(Nc3ccc(N4CCN(C)CC4)cc3)nc2n1-c1cccc(C(C)(C)O)n1 [MK1775] (first compound 0.01 µM, partner dose 0.02 µM) | 289% | 135% | 232% | 2470% | 315% | 83.6% | 106% | 104% | 420% | 1310% | 72.9% | 100% | 217% | 231% | 808% | 63.8% | 54.2% | 90.3% | 31.4% |
| Cc1ccc(Nc2nccc(N(C)c3ccc4c(C)n(C)nc4c3)n2)cc1S(N)(=O)=O [Pazopanib] + Cc1cc(N2CCOCC2)cc2[nH]c(-c3c(NC[C@@H](O)c4cccc(Cl)c4)cc[nH]c3=O)nc12 [BMS536924] (first compound 0.4 µM, partner dose 0.2 µM) | 189% | 102% | 95.3% | 73.4% | 219% | 98.9% | 515% | 77.1% | 109% | 219% | 53.9% | 96.7% | 29.4% | 29% | 153% | 106% | 59.8% | 108% | 109% |
| O=C(Nc1cc(C(F)(F)F)cc(C(F)(F)F)c1)c1cc(Cl)ccc1O + CO[C@@H]1[C@H](N(C)C(=O)c2ccccc2)C[C@H]2O[C@]1(C)n1c3ccccc3c3c4c(c5c6ccccc6n2c5c31)C(=O)NC4 [Midostaurin] (first compound 0.016 µM, partner dose 0.08 µM) | 166% | 167% | 145% | 58.1% | 47.3% | 49.1% | 108% | 20% | 49% | 106% | 131% | 171% | 104% | 267% | 105% | 60.1% | 173% | 94.7% | 55.9% |
| Cc1cn(-c2cc(NC(=O)c3ccc(C)c(Nc4nccc(-c5cccnc5)n4)c3)cc(C(F)(F)F)c2)cn1 [nilotinib] + OCCn1cc(-c2cnc3nnn(Cc4ccc5ncccc5c4)c3n2)cn1 [PF04217903] (first compound 0.2 µM, partner dose 1 µM) | 87.6% | 94.7% | 151% | 74.5% | 183% | 21.1% | 66.7% | 70.3% | 73.3% | 48% | 53.6% | 107% | 153% | 52.5% | 69.5% | 72% | 214% | 50.3% | 28.1% |
| Cc1cc(Nc2cc(N3CCN(C)CC3)nc(Sc3ccc(NC(=O)C4CC4)cc3)n2)n[nH]1 [Tozasertib] + C[C@@H]1CCN(C(=O)CC#N)C[C@@H]1N(C)c1ncnc2[nH]ccc12 [CP690550] (first compound 0.006 µM, partner dose 1 µM) | 122% | 154% | 119% | 52.1% | 47.5% | 112% | 43.7% | 36.7% | 199% | 108% | 32.4% | 87.4% | 26.1% | 59.3% | 125% | 235% | 134% | 50.9% | 105% |
| O=C(/C=C/c1cccnc1)NCCCCC1CCN(C(=O)c2ccccc2)CC1 + C[C@@H]1CCN(C(=O)CC#N)C[C@@H]1N(C)c1ncnc2[nH]ccc12 [CP690550] (first compound 0.01 µM, partner dose 1 µM) | 337% | 202% | 138% | 4130% | 662% | 50.7% | 50.8% | 27.8% | 146% | 478% | 167% | 138% | 95.7% | 45.1% | 230% | 72.3% | 141% | 45.2% | 111% |
| O=C(/C=C/c1cccnc1)NCCCCC1CCN(C(=O)c2ccccc2)CC1 + CC(C)(C)c1cnc(CSc2cnc(NC(=O)C3CCNCC3)s2)o1 [SNS-032] (first compound 0.01 µM, partner dose 0.01 µM) | 401% | 148% | 187% | 3220% | 437% | 54.9% | 200% | 225% | 145% | 1980% | 62.6% | 79.5% | 134% | 70.4% | 454% | 82.2% | 40.2% | 111% | 39.7% |
